Measured values taken from patent publication US8642728.
These are yes or no findings as the source states them, for the method shown. Some entries that bind do so weakly or less than the wild type. Where a sequence is shown, tags or fusion partners need not be part of it.

By UniProt entry, the sequences of proteins in these tests, tags left out. Residues count along the entry.
UniProt P02459, residues 182-1241: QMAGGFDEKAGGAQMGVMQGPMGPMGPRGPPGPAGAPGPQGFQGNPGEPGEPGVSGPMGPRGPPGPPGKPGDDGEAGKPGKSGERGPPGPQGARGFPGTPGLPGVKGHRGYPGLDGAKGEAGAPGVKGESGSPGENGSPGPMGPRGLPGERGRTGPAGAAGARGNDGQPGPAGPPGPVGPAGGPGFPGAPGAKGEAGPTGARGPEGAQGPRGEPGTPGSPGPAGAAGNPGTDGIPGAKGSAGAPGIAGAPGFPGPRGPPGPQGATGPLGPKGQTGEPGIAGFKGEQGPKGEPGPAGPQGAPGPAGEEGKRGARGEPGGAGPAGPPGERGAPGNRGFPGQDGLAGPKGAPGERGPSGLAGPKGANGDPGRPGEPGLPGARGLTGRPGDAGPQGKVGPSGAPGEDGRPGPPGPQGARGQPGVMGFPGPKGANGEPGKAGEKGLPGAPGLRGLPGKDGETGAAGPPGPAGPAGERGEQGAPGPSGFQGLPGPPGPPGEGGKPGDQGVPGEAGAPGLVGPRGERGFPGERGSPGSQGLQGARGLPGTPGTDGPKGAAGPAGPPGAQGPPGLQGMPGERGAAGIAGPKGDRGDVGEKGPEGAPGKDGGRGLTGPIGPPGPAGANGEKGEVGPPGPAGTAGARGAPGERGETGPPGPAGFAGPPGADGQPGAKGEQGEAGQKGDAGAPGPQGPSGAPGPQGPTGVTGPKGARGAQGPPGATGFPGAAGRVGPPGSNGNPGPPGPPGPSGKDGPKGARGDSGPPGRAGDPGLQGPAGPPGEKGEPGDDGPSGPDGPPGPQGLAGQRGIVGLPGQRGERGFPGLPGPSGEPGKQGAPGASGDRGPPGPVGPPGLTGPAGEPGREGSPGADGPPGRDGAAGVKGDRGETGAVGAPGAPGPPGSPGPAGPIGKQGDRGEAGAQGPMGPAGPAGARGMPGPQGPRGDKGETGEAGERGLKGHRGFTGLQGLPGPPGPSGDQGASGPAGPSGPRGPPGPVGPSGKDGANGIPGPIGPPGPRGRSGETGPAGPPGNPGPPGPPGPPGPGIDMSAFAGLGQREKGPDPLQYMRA
UniProt P02461, residues 154-1221: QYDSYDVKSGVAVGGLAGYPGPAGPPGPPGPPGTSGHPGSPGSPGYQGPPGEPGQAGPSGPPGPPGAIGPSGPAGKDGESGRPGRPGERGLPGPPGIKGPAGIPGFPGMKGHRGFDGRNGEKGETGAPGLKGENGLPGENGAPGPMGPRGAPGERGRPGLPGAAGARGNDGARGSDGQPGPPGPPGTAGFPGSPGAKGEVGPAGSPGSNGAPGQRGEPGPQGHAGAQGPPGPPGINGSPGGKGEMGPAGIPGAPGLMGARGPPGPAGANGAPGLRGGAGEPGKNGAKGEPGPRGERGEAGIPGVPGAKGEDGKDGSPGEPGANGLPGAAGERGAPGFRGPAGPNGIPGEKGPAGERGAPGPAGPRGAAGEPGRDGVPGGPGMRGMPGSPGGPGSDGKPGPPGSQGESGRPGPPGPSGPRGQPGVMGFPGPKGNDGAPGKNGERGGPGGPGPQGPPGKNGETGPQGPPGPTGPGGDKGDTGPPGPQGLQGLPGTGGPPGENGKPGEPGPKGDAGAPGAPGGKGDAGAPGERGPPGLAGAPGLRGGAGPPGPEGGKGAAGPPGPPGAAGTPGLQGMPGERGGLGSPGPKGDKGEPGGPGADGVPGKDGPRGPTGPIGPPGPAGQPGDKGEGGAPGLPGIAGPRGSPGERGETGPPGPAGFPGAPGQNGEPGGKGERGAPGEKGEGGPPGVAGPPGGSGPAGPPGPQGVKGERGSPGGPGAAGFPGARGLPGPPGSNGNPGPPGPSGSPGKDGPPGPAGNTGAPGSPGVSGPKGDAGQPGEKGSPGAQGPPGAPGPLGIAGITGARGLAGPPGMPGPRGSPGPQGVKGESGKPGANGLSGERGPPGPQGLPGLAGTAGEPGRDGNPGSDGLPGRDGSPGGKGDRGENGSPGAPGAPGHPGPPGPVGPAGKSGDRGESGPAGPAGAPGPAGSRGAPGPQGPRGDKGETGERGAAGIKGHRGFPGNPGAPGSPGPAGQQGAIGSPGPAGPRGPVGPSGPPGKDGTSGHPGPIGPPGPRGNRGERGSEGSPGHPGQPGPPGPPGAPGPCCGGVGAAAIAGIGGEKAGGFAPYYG

Experiments:
[1] = target: collagen III Toolkit peptide III-36; assay: ELISA screen of plate-bound Toolkit peptides with OSCAR-Fc (Table 4)
[2] = target: collagen II Toolkit peptide II-1; assay: as above
[3] = target: collagen II Toolkit peptide II-26; assay: as above
[4] = target: collagen II Toolkit peptide II-35; assay: as above
[5] = target: collagen II Toolkit peptide II-45; assay: as above
[6] = target: collagen III Toolkit peptide III-36; assay: ELISA screen of plate-bound collagen III Toolkit peptides
[7] = target: GPC(GPP)5-GAOGPAGFA-(GPP)5GPC-NH2; assay: told in the legend of FIG. 13; binding shown by OSCAR-Fc ELISA (FIGS. 7, 8)
[8] = target: collagen II Toolkit peptide II-1; assay: ELISA screen of plate-bound collagen II Toolkit peptides
[9] = target: collagen II Toolkit peptide II-26; assay: as above
[10] = target: collagen II Toolkit peptide II-35; assay: as above
[11] = target: collagen II Toolkit peptide II-45; assay: as above
[12] = target: type II collagen (bovine) (UniProt P02459); assay: solid-phase ELISA; coated collagen, Fc-fusion 5 µg/ml, OD450
[13] = target: type III collagen (human) (UniProt P02461); assay: as above
[14] = target: GPC(GPP)5GAOGPAGSA(GPP)5GPC-NH2; assay: OSCAR-Fc ELISA on substituted triple-helical peptides (FIG. 8)
[15] = target: GPC(GPP)5GAOGPAGYA(GPP)5GPC-NH2; assay: as above
[16] = target: GPC(GPP)5GAOGASGDR(GPP)5GPC-NH2; assay: as above

Measured: binding

B1: human OSCAR-Fc fusion protein (Fc fusion, UniProt Q8IYS5 19-220, looked up, not shown: a dimerising Fc or GST)
chain: DITPSVPPASYHPKPWLGAQPATVVTPGVNVTLRCRAPQPAWRFGLFKPGEIAPLLFRDVSSELAEFFLEEVTPAQGGIYRCCYRRPDWGPGVWSQPSDVLELLVTEELPRPSLVALPGPVVGPGANVSLRCAGRLRNMSFVLYREGVAAPLQYRHSAQPWADFTLLGARAPGTYSCYYHTPSAPYVLSQRSEVLVISWEGE
binds: [1] | [2] | [3] | [4] | [5] | [6] | [7] | [8] | [9] | [10] | [11] | [12] | [13] | [14] | [15] | [16]
